Reference: US7705016B2, “Regulation of food intake by modulation of long-chain fatty acyl-CoA levels in the hypothalamus” (Albert Einstein College of Medicine of Yeshiva University, priority 2003, dated 2010)

Assays:
hepatic glucose fluxes = experiment: Hepatic glucose fluxes (flux through Glc-6-Pase, glucose cycling, direct pathway) after ICV OA; type: in vivo, rat
Method: (§1) Analytical Procedures and Calculations. Plasma glucose was measured by the glucose oxidase method (Glucose Analyzer II, Beckman Instruments, Inc. Fullerton, Calif., USA). Plasma insulin and leptin levels were determined by RIA (rat Leptin RIA kit, Linco Research Inc., St. Charles, Mo.). Serum adiponectin was measured by RIA (Linco Research, Inc., St. Charles, Mo.). Plasma non-esterified fatty acid concentrations were determined an enzymatic method by an automated kit according to the manufacturer's specifications (Waco Pure Chemical Industries. Osaka, Japan). The radioactivity of [3-^3H]glucose in plasma was measured from supernatants of Ba (OH)2 and from ZnSO4 precipitates (Somogyi procedure), after each was evaporated to dryness for the removal of tritiated water. Hepatic uridine diphosphoglucose (UDP-glucose) concentrations and specific activities were obtained by two sequential chromatographic separations, as previously described (Giaccari and Rossetti, 1989; 1992; Rossetti et al., 1993; 1996). Calculations were performed as described (Barzilai et al., 1997).
ICV OA markedly decreases the in vivo flux through Glc-6-Pase. GP represents the net contribution of glucosyl units derived from gluconeogenesis and glycogenolysis. However, a portion of glucose entering the liver via phophorylation by glucokinase is also a substrate for de-phosphorylation via Glc-6-Pase. This futile cycle between glucokinase and Glc-6-Pase is commonly named glucose cycling and accounts for the difference between the total glucose output (flux through Glc-6-Pase) and GP (FIG. 9a).
In order to further delineate the mechanisms responsible for the effect of ICV OA infusion on hepatic glucose production we estimated the in vivo flux through Glc-6-Pase and the relative contribution of glucose cycling to glucose output (Table 3; FIG. 9b,c). FIG. 9b,c depict the effect of ICV OA and ICV vehicle on the rates of hepatic glucose fluxes during the pancreatic-insulin clamp procedure. In the presence of similar plasma insulin concentrations, the rate of glucose production (as shown in FIG. 8a) was decreased by ICV Office Action in the HF55 and HF80 but not in the ad libitum fed rats (HF140). […] The latter finding taken together with the moderate increase in the % direct pathway (Table 3) is consistent with a stimulatory effect of central OA on hepatic glucose phosphorylation. […] These effects of ICV OA are blunted after three days of voluntary overfeeding.

[1] = tested on: male Sprague-Dawley (S-D) rats; experiment: ICV OA infusion with pancreatic-insulin clamp (insulin action studies); type: in vivo, rat
Description: Insulin action studies. The experimental protocol herein was designed to examine the effect of nutritional status on the ability of long-chain fatty acids in the hypothalamus to modulate carbohydrate metabolism. Rats (n=43) were implanted with chronic catheters as previously described (Liu et al., 1998). After full recovery from the catheterization, animals were randomized into three groups HF55 (n=16), HF80 (n=9), or HF140 (n=18) and were allowed to consume their allocated diet for three days. On the night prior to the in vivo study all rats received 55 kcal to ensure a similar nutritional state at the start of the metabolic studies. All studies were performed in awake, unstressed, chronically catheterized rats. At t=−120 (FIG. 7a), a primed-continuous infusion of ICV OA (total dose 30- or 300-nmol) or Vehicle (HBP 10% in aCSF) was initiated and maintained throughout the duration of the study. Plasma glucose was measured periodically initiating at the onset (t=−120) of the ICV infusion and lasting throughout the duration of the study. Plasma samples for determination of insulin, leptin, and non-esterified fatty acid concentration were obtained at the onset (t=−120) and at 30 min intervals during the study. At t=0, and a primed-continuous infusion of HPLC-purified [3-3H]-glucose (New England Nuclear, Boston, Mass.; 40 μCi bolus, 0.4 μCi/min for duration of the study) was initiated and maintained for the last four hours of the study. Samples for determination of ^3H-glucose specific activity were obtained at 10-minute intervals throughout infusions. Finally, at t=120, a pancreatic-insulin clamp study was initiated and maintained for two hours. During this procedure, a primed-continuous infusion of regular insulin (1 mU/kg/min) was administered, and a variable infusion of 25% glucose solution was started at t=120 and periodically adjusted to clamp the plasma glucose concentration at ˜7 mM. The rate of insulin infusion was designed to replace the plasma insulin concentration at ˜the average basal levels in post-absorptive rats. In order to control for possible effects of the ICV injections on endocrine pancreas, somatostatin (3 μg/kg/min) was coinfused with insulin to inhibit endogenous insulin secretion. At the end of the in vivo studies, rats were anesthetized (pentobarbital 55 mg/kg body weight, intravenously) and tissue samples were freeze-clamped in situ with aluminum tongs pre-cooled in liquid nitrogen. All tissue samples were stored at −80° C. for subsequent analysis.
as §1

[2] = Basal, HF140, ICV OA (300 nmol)
[3] = Clamp, HF140, ICV OA (300 nmol)

CCCCCCCC/C=C\CCCCCCCC(=O)O [OA, oleic acid]
% Direct (contribution of plasma glucose to the hepatic UDPglucose pool) (hepatic glucose fluxes; HF55): 17 ± 4%
^3H-Glucose Plasma SA (dpm/nmol) (hepatic glucose fluxes; HF55): 41.2 ± 4.2 dpm/nmol
UDPglucose Liver SA (dpm/nmol) (hepatic glucose fluxes; HF55, end of pancreatic/insulin clamp): 7.4 ± 2.0 dpm/nmol
% Direct (contribution of plasma glucose to the hepatic UDPglucose pool) (hepatic glucose fluxes; HF140): 18 ± 2%
^3H-Glucose Plasma SA (dpm/nmol) (hepatic glucose fluxes; HF140): 54.5 ± 3.1 dpm/nmol
UDPglucose Liver SA (dpm/nmol) (hepatic glucose fluxes; HF140, end of pancreatic/insulin clamp): 10.0 ± 1.4 dpm/nmol
Body Weight ([1]; Basal, HF55, ICV OA): 295 ± 6 g
FFA ([1]; Basal, HF55, ICV OA): 0.5 ± 0.1 mmol/L
Food Intake(kcal/d) ([1]; Basal, HF55, ICV OA): 55 kcal/day
Glucose ([1]; Basal, HF55, ICV OA): 7.4 ± 0.2 mmol/L
Insulin ([1]; Basal, HF55, ICV OA): 0.7 ± 0.3 ng/mL
Leptin ([1]; Basal, HF55, ICV OA): 1.3 ± 0.2 ng/mL
Δ Body Weight ([1]; Basal, HF55, ICV OA): -15 ± 3 g
Body Weight ([1]; Basal, HF80, ICV OA): -307 ± 4 g
FFA ([1]; Basal, HF80, ICV OA): 0.4 ± 0.1 mmol/L
Food Intake(kcal/d) ([1]; Basal, HF80, ICV OA): 80 kcal/day
Glucose ([1]; Basal, HF80, ICV OA): 7.2 ± 0.3 mmol/L
Insulin ([1]; Basal, HF80, ICV OA): 0.8 ± 0.2 ng/mL
Leptin ([1]; Basal, HF80, ICV OA): 1.0 ± 0.1 ng/mL
Δ Body Weight ([1]; Basal, HF80, ICV OA): -3 ± 8 g
Body Weight ([1]; Basal, HF140, ICV OA (30 nmol)): 312 ± 12 g
FFA ([1]; Basal, HF140, ICV OA (30 nmol)): 0.4 ± 0.1 mmol/L
Food Intake(kcal/d) ([1]; Basal, HF140, ICV OA (30 nmol)): 137 ± 6 kcal/day
Glucose ([1]; Basal, HF140, ICV OA (30 nmol)): 7.4 ± 0.1 mmol/L
Insulin ([1]; Basal, HF140, ICV OA (30 nmol)): 1.7 ± 0.4 ng/mL
Leptin ([1]; Basal, HF140, ICV OA (30 nmol)): 1.8 ± 0.2 ng/mL
Δ Body Weight ([1]; Basal, HF140, ICV OA (30 nmol)): 13 ± 4 g
Body Weight [1, 2]: 301 ± 9 g
FFA [1, 2]: 0.5 ± 0.1 mmol/L
Food Intake(kcal/d) [1, 2]: 150 ± 4 kcal/day
Glucose [1, 2]: 7.4 ± 0.2 mmol/L
Insulin [1, 2]: 1.8 ± 0.4 ng/mL
Leptin [1, 2]: 2.0 ± 0.3 ng/mL
Δ Body Weight [1, 2]: 11 ± 3 g
FFA ([1]; Clamp, HF55, ICV OA): 0.4 ± 0.1 mmol/L
Glucose ([1]; Clamp, HF55, ICV OA): 7.3 ± 0.3 mmol/L
Insulin ([1]; Clamp, HF55, ICV OA): 0.8 ± 0.2 ng/mL
Leptin ([1]; Clamp, HF55, ICV OA): 0.9 ± 0.1 ng/mL
FFA ([1]; Clamp, HF80, ICV OA): 0.4 ± 0.1 mmol/L
Glucose ([1]; Clamp, HF80, ICV OA): 7.1 ± 0.3 mmol/L
Insulin ([1]; Clamp, HF80, ICV OA): 0.8 ± 0.1 ng/mL
Leptin ([1]; Clamp, HF80, ICV OA): 1.0 ± 0.1 ng/mL
FFA ([1]; Clamp, HF140, ICV OA (30 nmol)): 0.4 ± 0.1 mmol/L
Glucose ([1]; Clamp, HF140, ICV OA (30 nmol)): 7.5 ± 0.2 mmol/L
Insulin ([1]; Clamp, HF140, ICV OA (30 nmol)): 1.1 ± 0.2 ng/mL
Leptin ([1]; Clamp, HF140, ICV OA (30 nmol)): 1.6 ± 0.2 ng/mL
FFA [1, 3]: 0.5 ± 0.1 mmol/L
Glucose [1, 3]: 7.8 ± 0.3 mmol/L
Insulin [1, 3]: 1.2 ± 0.1 ng/mL
Leptin [1, 3]: 1.9 ± 0.4 ng/mL
stimulatory effect on GIR, HF55 relative to HF80 ([1]; ICV OA 30 nmol): ~2 fold
